Each structure is given as a SMILES string. Over roughly 3,200 compounds, “TSA(with NAD+) / Primary screening (TSA) / delta Tm (K)” has its median near -0.04; the highest 2% begin near 0.37. This is one part of the list.

Amino acid sequences for entries named in this document (tags omitted). Residues count along the entry.
UniProt Q96EB6, 2-747 limits assumed: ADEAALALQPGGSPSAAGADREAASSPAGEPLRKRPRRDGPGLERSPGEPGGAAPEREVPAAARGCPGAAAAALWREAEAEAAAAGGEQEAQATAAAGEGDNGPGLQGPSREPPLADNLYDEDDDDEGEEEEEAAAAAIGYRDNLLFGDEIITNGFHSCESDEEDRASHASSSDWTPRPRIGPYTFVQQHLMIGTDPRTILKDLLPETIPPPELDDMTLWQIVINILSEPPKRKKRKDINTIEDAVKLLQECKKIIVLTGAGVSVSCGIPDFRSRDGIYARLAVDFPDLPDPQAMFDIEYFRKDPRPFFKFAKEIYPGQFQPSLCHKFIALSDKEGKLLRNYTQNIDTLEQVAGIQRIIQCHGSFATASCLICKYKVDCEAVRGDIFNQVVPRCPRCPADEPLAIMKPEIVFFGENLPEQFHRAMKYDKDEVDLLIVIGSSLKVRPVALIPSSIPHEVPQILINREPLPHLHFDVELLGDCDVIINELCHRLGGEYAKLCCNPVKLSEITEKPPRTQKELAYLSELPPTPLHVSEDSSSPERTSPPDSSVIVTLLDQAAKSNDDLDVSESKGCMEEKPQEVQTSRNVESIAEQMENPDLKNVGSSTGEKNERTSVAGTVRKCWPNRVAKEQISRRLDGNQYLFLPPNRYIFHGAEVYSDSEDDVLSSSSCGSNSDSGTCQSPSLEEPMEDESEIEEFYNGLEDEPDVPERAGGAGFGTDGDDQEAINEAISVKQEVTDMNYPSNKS

The values that follow come from article PMC6925144, “A prospective compound screening contest identified broader inhibitors for Sirtuin 1” (Scientific Reports, 2019).

This assay concerns the target NAD-dependent deacetylase Sirtuin 1 (human, UniProt Q96EB6). The experiment in a line: primary screen, delta tm. Set-up: single well (n = 1, as 'the same TSA'). The following applies: 10 µM.
Regarding `CC(C)(O)Cn1cnc2c(N3CCOCC3)ncnc21`, the “TSA(with NAD+) / Primary screening (TSA) / delta Tm (K)” value is recorded as -0.05 K.
For `C=CCOc1ccc(C(=O)C2=C(O)C(=O)N(CCN3CCOCC3)C2c2cccs2)cc1` (centres unmarked), the “TSA(with NAD+) / Primary screening (TSA) / delta Tm (K)” value is listed as -0.01 K.
The result for `O=C(CSc1nnc(-c2ccccc2Br)[nH]1)NCCN1C(=O)CSC1=O` reads 0.06 K; that for `NC(=O)c1ccc(OCC(=O)NCC2CN(Cc3ccccc3)CCO2)cc1` (centres unmarked), 0.02 K.
The result for `COc1ccc(-c2noc(CCC(=O)OCc3cc(=O)oc4cc(NC(C)=O)ccc34)n2)cc1` reads -0.01 K; that for `COc1ccc(NC(=O)COc2ccc(C(=O)NCC34CC5CC(CC(C5)C3)C4)cc2OC)cc1`, -0.01 K; that for `Nn1c(S)nnc1COc1ccc(F)cc1`, -0.06 K.
On to `CCC(=O)Nc1cccc(C(=O)NNC(=O)c2nc(-c3ccccc3)n(-c3ccccc3)n2)c1`, for which the “TSA(with NAD+) / Primary screening (TSA) / delta Tm (K)” value is recorded as -0.06 K.
The result for `CCOc1ccc(C2C(C(=O)c3ccco3)=C(O)C(=O)N2CCCN2CCOCC2)cc1OCC` (centres unmarked) reads -0.01 K.
Next, `Cc1noc(C)c1CC(=O)Nc1ccccc1-c1nc(C(C)C)n[nH]1`: -0.24 K; `CCOCCn1ccc2cc(OC)c(F)cc2c1=O`: -0.09 K.
`NCCN1CCNCC1`: the “TSA(with NAD+) / Primary screening (TSA) / delta Tm (K)” value was -0.01 K.
Next, `N#CC1=C(N)Oc2c(ccc3ccccc23)C1c1ccccc1F` (centres unmarked): -0.01 K; `CC(C)Oc1ccc(C(=O)C2=C(O)C(=O)N(CCCN3CCOCC3)C2c2ccccc2F)cc1` (centres unmarked): 0.01 K; `C=CCOc1ccc(C2C(C(=O)c3cccs3)=C(O)C(=O)N2CCCN2CCOCC2)cc1` (centres unmarked): -0.01 K.
On to `O=C(CCc1cccnc1)Nc1ccccc1N1CCc2ccccc2C1`, for which the “TSA(with NAD+) / Primary screening (TSA) / delta Tm (K)” value is on record as -0.14 K.
With `COCc1noc(CN2CCCCC2c2cc3ccccc3[nH]2)n1` (centres unmarked), the “TSA(with NAD+) / Primary screening (TSA) / delta Tm (K)” value is given as -0.01 K.
The result for `CCCOc1ccc(C(=O)C2=C(O)C(=O)N(CCCN3CCOCC3)C2c2ccco2)cc1` (centres unmarked) reads -0.05 K.
Next, `O=C(CN1CCN(C(=O)c2ccc(-c3cc(Cl)ccc3Cl)o2)CC1)Nc1ccccc1Cl`: -0.03 K; `Cc1ccc(S(=O)(=O)NCC(=O)NCC(=O)OCC(=O)c2ccc(C3CCCCC3)cc2)cc1C`: 0.06 K.
Next, `Cc1ccc(NC(=O)c2cccc(S(=O)(=O)N(C)c3ccc(C)cc3)c2)cc1`: 0.29 K; `Cc1[nH]nc(C(N)=O)c1NC(=O)Cn1ccc2ccc(Cl)cc21`: 0.05 K.
As for `CC1CCN(CCNC(=O)NC(C)c2ccc3c(c2)CC(=O)N3)CC1` (centres unmarked), the “TSA(with NAD+) / Primary screening (TSA) / delta Tm (K)” value was 0.02 K.
The result for `CC(=O)Nc1ccc(C(=O)COC(=O)c2ccccc2-c2ncc(-c3ccccc3)o2)cc1` reads -0.06 K; that for `Cc1ccc(-c2sc(-c3ccccc3)nc2CC(=O)NC2(C)CCS(=O)(=O)C2)cc1` (centres unmarked), -0.33 K; that for `CS(=O)(=O)NCCSc1nnc(NCC2CCCO2)s1` (centres unmarked), -0.09 K.
Turning to `COC(=O)c1cc(OC)ccc1NC(=O)Cn1c(-c2ccc(F)cc2)c(C)sc1=O`, the “TSA(with NAD+) / Primary screening (TSA) / delta Tm (K)” value is -0.11 K.
The result for `O=C(c1cn(Cc2ccccc2)nc1-c1cccs1)N1CCCC1` reads -0.14 K; that for `COc1ccc(C(=O)NC2CCCCCC2C(N)=O)c(F)c1` (centres unmarked), -0.01 K; that for `CC(N)CC(=O)O` (centres unmarked), 0.05 K.
For the compound `CC(C)(C)c1ccccc1NC(=O)C1CC(=O)N(Cc2ccccc2)C1` (centres unmarked), the “TSA(with NAD+) / Primary screening (TSA) / delta Tm (K)” value is given as -0.01 K.
With `Cc1ccc(C)c(C(=O)Nc2cccc(S(=O)(=O)N3CCCCCC3)c2)c1`, the “TSA(with NAD+) / Primary screening (TSA) / delta Tm (K)” value came to 0.05 K.
Consider `O=c1[nH]c(=O)c2[nH]c(=O)[nH]c2[nH]1`, for which the “TSA(with NAD+) / Primary screening (TSA) / delta Tm (K)” value is 0.05 K.
The result for `N#Cc1ccc(NC(=O)CSc2nnc(NCc3ccco3)s2)cc1` reads -0.04 K; that for `Cc1ccc(-c2cc(-c3ccccc3)c3cc([N+](=O)[O-])ccc3n2)cc1`, 0.08 K; that for `CN(CCC(=O)N1CCc2ccccc21)Cc1ccc2ccccc2c1`, 0.02 K.
Next, `CS(=O)(=O)NCC(=O)O`: 0.17 K; `CN(C)c1ccc(NC(=O)c2cccc(S(=O)(=O)N(C)c3cccc(Cl)c3)c2)cc1`: 0.06 K.
The result for `CC(C)CNc1nnc(S)s1` reads 0.07 K; that for `Cn1cc(C(=O)OCc2ccc(C(=O)N3CCCC3)cc2)c2ccccc21`, -0.11 K; that for `COc1ccc(N(C)S(=O)(=O)c2cccc(C(=O)Nc3sc4c(c3C(N)=O)CCC(C)C4)c2)cc1` (centres unmarked), 0.02 K.
As for `CC(C)C(=O)NCCNC(=O)Nc1cc(C(N)=O)ccc1F`, the “TSA(with NAD+) / Primary screening (TSA) / delta Tm (K)” value is -0.13 K.
`Cc1ccc(Cn2c(=O)c3ccccc3n3c(SCC4CCCO4)nnc23)cc1` (centres unmarked): the “TSA(with NAD+) / Primary screening (TSA) / delta Tm (K)” value was -0.04 K.
The result for `Cc1cccn2c(=O)c3cc(C(=O)N4CCc5ccccc54)sc3nc12` reads 0.08 K.
As to `Cc1nc(N2CCN(CCN3CCCC3)CC2)c2c(-c3ccccc3)csc2n1`, the “TSA(with NAD+) / Primary screening (TSA) / delta Tm (K)” value is given as -0.01 K.
Consider `FC(F)(F)c1cc(N2CCN(Cc3nc4ccccc4[nH]3)CC2)n2ncnc2n1`, for which the “TSA(with NAD+) / Primary screening (TSA) / delta Tm (K)” value is -0.23 K.
As for `Cc1ccc2[nH]c(C)c(CC(=O)OCC(=O)N3CCC(C(N)=O)CC3)c2c1`, the “TSA(with NAD+) / Primary screening (TSA) / delta Tm (K)” value was found to be 0.03 K.
Take `COCCNCCCN`: the “TSA(with NAD+) / Primary screening (TSA) / delta Tm (K)” value is on record as -0.18 K.
Next, `O=C(Nc1cccc(S(=O)(=O)N2CCOCC2)c1)C1c2ccccc2Oc2ccccc21`: -0.09 K.
In the case of `Cc1nn(Cc2ccccc2Cl)c(C)c1-c1nc(-c2ccccc2)c(-c2ccccc2)[nH]1`, the “TSA(with NAD+) / Primary screening (TSA) / delta Tm (K)” value is -0.01 K.
The result for `CC(C)(C)OC(=O)NCCOc1cccc(NS(=O)(=O)c2ccc3c4c(cccc24)C(=O)N3)c1` reads 0.07 K; that for `COCCNc1ncnc2ccsc12`, 0.05 K.
For `CC(O)CNCc1cn(-c2ccccc2)nc1-c1cc2ccccc2o1` (centres unmarked), the “TSA(with NAD+) / Primary screening (TSA) / delta Tm (K)” value was -0.04 K.
The result for `O=C(c1nn(Cc2ccccc2)c(=O)c2ccccc12)N1CCN(Cc2ccncc2)CC1` reads 0.07 K; that for `COc1ccc2cc(CNC(=O)C3=COCCO3)ccc2c1`, -0.38 K; that for `CCCCc1ccc(N2CC(C(=O)N3CCN(c4cnccn4)CC3)CC2=O)cc1` (centres unmarked), -0.13 K.
The result for `CCOC(=O)c1c(C)[nH]c(C(=O)CN(C)Cc2ccc(C)cc2)c1C` reads -0.05 K; that for `CC(C)n1cnnc1C1CCN(c2ncc(C(N)=O)cc2Cl)CC1`, 0.03 K; that for `O=C1CSc2ccc(C(=O)Nc3ccc(N4CCN(Cc5ccccc5)CC4)cc3)cc2N1`, -0.23 K.
For the compound `O=C(NCc1cccnc1Oc1cccc(F)c1)N1CCOc2ccccc2C1`, the “TSA(with NAD+) / Primary screening (TSA) / delta Tm (K)” value is listed as -0.01 K.
As to `COCC(N)CN` (centres unmarked), the “TSA(with NAD+) / Primary screening (TSA) / delta Tm (K)” value is 0.05 K.
Next, `Cc1nn(-c2ccccc2)c(C)c1CCC(=O)Nc1c(C)n(C)n(-c2ccccc2)c1=O`: 0.05 K; `CCN(CC)CCCNC(=O)Nc1ccc(S(N)(=O)=O)cc1`: -0.13 K.
With `CNC(=O)CN(Cc1ccccc1)S(=O)(=O)c1ccc(Cl)cc1`, the “TSA(with NAD+) / Primary screening (TSA) / delta Tm (K)” value is recorded as -0.03 K.
For the compound `Cc1cccc(NS(=O)(=O)c2cccc(C(=O)OCC(=O)NC(=O)NC34CC5CC(CC(C5)C3)C4)c2)c1`, the “TSA(with NAD+) / Primary screening (TSA) / delta Tm (K)” value is recorded as 0.46 K.
Next, `O=C(Cc1c(Cl)cccc1Cl)Nc1ccc(N2CCN(Cc3ccccc3)CC2)cc1`: 0.02 K; `CCC(=O)N(c1nn(CN(C)Cc2c(C)nn(C3CCS(=O)(=O)C3)c2C)c(=S)s1)C1CC1` (centres unmarked): -0.22 K; `CCC(=O)NC(C)C(=O)NCC1CCCO1` (centres unmarked): -0.36 K.
The result for `NS(=O)(=O)Cc1cccc(Cl)c1` reads -0.13 K.
In the case of `COc1cc(CN(C)C(=O)Cn2cnc3ccccc3c2=O)ccc1OCc1ccccc1`, the “TSA(with NAD+) / Primary screening (TSA) / delta Tm (K)” value was 0.06 K.
The result for `Cc1ccc([N+](=O)[O-])cc1S(=O)(=O)Nc1ccc(C(=O)OC(C)C(=O)NC23CC4CC(CC(C4)C2)C3)cc1` (centres unmarked) reads 0.76 K.
Regarding `NC(=O)C1CCN(C(=O)c2ccc(-c3ccc(Cl)cc3)s2)C1` (centres unmarked), the “TSA(with NAD+) / Primary screening (TSA) / delta Tm (K)” value is recorded as -0.11 K.
Next, `CCCCn1nnnc1COC(=O)c1cccc(S(=O)(=O)N(C)c2cccc(Cl)c2)c1`: -0.12 K; `CCN(CC)c1ncnc2c1oc1ccccc12`: -0.03 K.
The result for `O=C(O)c1ccc(S(=O)(=O)N2CCC(c3ccccc3)C2)c(F)c1` (centres unmarked) reads -0.02 K.
Next, `CC(C)CNc1ncnc2c1oc1ccccc12`: -0.05 K.
Regarding `NC(=O)C1CN(c2nc(C3CC3)nc3sc4c(c23)CCCC4)CCO1` (centres unmarked), the “TSA(with NAD+) / Primary screening (TSA) / delta Tm (K)” value is -0.19 K.
On to `CCC(C)c1ccc(C(Nc2ccc3nnnn3n2)C(C)C)cc1` (centres unmarked), for which the “TSA(with NAD+) / Primary screening (TSA) / delta Tm (K)” value is recorded as 0.07 K.
Next, `CC(CNS(=O)(=O)c1ccc(CCC(=O)O)cc1)c1nc2ccccc2n1C(F)F` (centres unmarked): 0.01 K.
As to `CCOc1cccc(C=C2C(=O)NC(=S)NC2=O)c1`, the “TSA(with NAD+) / Primary screening (TSA) / delta Tm (K)” value is listed as -0.01 K.
The result for `Nc1cc(C(F)(F)F)ccc1O` reads -0.61 K.
Next, `Cc1nn(C)c2ncc(S(=O)(=O)N(C)c3cccc(C#N)c3)cc12`: 0.03 K.
The result for `Cc1nc(N2CCN(C(=O)CCc3ccccc3)CC2)c2cc[nH]c2n1` reads -0.11 K.
With `CN(c1ccc(Oc2ccccc2)cc1)S(=O)(=O)c1cc(C(N)=O)n(C)c1`, the “TSA(with NAD+) / Primary screening (TSA) / delta Tm (K)” value came out at 0.02 K.
Next, `COC(=O)c1ccc(C2NC(=O)NC3=C2C(=O)N(CCO)C3)cc1` (centres unmarked): -0.03 K; `CC(C)(C)NCCN`: -0.01 K; `CCCCc1ccc(NC(=O)c2cccc(S(=O)(=O)N(C)c3cccc(Cl)c3)c2)cc1`: -0.16 K.
For the compound `Cc1ccc(-c2cc(NC(=O)CSc3nnc(NCc4ccco4)s3)on2)cc1`, the “TSA(with NAD+) / Primary screening (TSA) / delta Tm (K)” value is -0.08 K.
Next, `COc1ccc(C2C(C(=O)c3ccc(C)cc3)=C(O)C(=O)N2CCCN2CCOCC2)cc1` (centres unmarked): -0.22 K; `CCNC(=O)c1cccc(NC(=O)C2CCN(S(=O)(=O)c3cc(C(C)(C)C)ccc3C)CC2)c1`: 0.16 K.
Consider `COc1ccc(Br)cc1/C=C1/Oc2cc(O)ccc2C1=O`, for which the “TSA(with NAD+) / Primary screening (TSA) / delta Tm (K)” value is given as 0.16 K.
Turning to `O=C1/C(=C\c2cc3ccccc3nc2N2CCOCC2)Oc2cc(O)ccc21`, the “TSA(with NAD+) / Primary screening (TSA) / delta Tm (K)” value is 0.26 K.
